Drawing on PMC8176221, “Identification and Characterization of Two Transmembrane Proteins Required for Virulence of Ustilago maydis” (Frontiers in Plant Science, 2021), this text covers binding for one substance.

The chains behind the UniProt entries cited, without tags or fusion partners. Residues count along the entry.
UniProt A0A0D1CVX2, residues 120-335: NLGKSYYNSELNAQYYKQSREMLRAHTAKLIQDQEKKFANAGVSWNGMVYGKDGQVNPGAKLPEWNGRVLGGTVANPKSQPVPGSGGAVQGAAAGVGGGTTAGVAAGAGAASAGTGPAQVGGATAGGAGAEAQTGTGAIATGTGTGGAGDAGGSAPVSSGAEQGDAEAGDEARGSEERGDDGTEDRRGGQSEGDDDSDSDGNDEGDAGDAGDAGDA

The assay has as its target C-terminal domain (CTD) of Vmp2 (aa 120-335) (Ustilago maydis). Kind of assay: SEC-MALS; Tag-free Vmp2CTD in HEPES buffer (20 mM HEPES, 200 mM NaCl, 20 mM KCl, pH 7.5); Superdex 75 Increase 10/300 (results); 100 μl of a 50 μM protein solution injected; both purified. Background: Size exclusion chromatography separates by hydrodynamic size, large species first.

Results are given in words; binding and its absence hold for the method and conditions named.

With “C-terminal domain (CTD) of Vmp2 (aa 120-335) (from UniProt A0A0D1CVX2 120-335) (domain or fragment)”, the binding entry was “no binding (tested: 50 μM protein solution injected)”.
